Measured values as given in the supplement of paper PMC5407854, “Inhibitor of ppGalNAc-T3-mediated O-glycosylation blocks cancer cell invasiveness and lowers FGF23 levels” (eLife, 2017).
The other results are listed elsewhere or left out. Most entries show no effect beyond the scatter of the controls.

Key:
ppGalNAc-T3 sensor = assay: T3 sensor activation Q score (MG/GFP ratio z-score vs DMSO controls) (SD units); higher = more sensor activation (inhibition of ppGalNAc-T3 glycosylation); details: HEK293 sensor cells; 10 µM; 6 h
Experimental: (§1)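 Cells were treated with compound at 10 uM for 6 h, then MG/GFP ratio was read by flow cytometry (10,000 cells per well, duplicate wells). Q = (R - R_neg)/SD_neg relative to DMSO vehicle controls; the signal rises when the glycosyltransferase is inhibited.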

ppGalNAc-T2 sensor = assay: T2 sensor activation Q score (MG/GFP ratio z-score vs DMSO controls) (SD units); higher = more sensor activation (inhibition of ppGalNAc-T2 glycosylation); details: HEK293 sensor cells; 10 µM; 6 h
Experimental: as §1

Row | Compound | T3 sensor activation Q score (ppGalNAc-T3 sensor) | T2 sensor activation Q score (ppGalNAc-T2 sensor)
1 | CN(Cc1ccc2c(c1)OCO2)C1CCCCC1 | 0.53 | -0.275
2 | C/C(=C\c1ccccc1)CN1CC(C)OC(C)C1 (stereo not drawn) | 0.215 | 0.57
3 | COc1ccc(CN2CCC(O)CC2)cc1C | 0.92 | 0.655
4 | COc1ccc(OC)c(Nc2cc(-c3ccccc3)nc(N)n2)c1 | 2.71 | 1.58
